# PubChem BioAssay AID652243 | Drosophila RNAi Screening Center – 2013
# Aim: 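Knock-downs that decrease or increase androgen receptor reporter signal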 (primary screen)
# System: Drosophila S2R+ cells
# Reagent: long dsRNA against Drosophila genes
# Timing: 72 h (48 h, then 24 h hormone)
# Treatment: synthetic androgen R1881 at 10 nM for 24 h
# Measurement: 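Firefly light from an androgen-responsive reporter and Renilla control light per well, raw and unnormalised, for each of two replicates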
# Direction: firefly reporter light: higher = more light from androgen-responsive reporter; Renilla control light: higher = more constitutive control signal (cell number, transfection)
# Call rule: 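Across duplicate plates, a knock-down whose log firefly/Renilla ratio shifted a set fold down or up from the GFP/LacZ control mean was a hit; the downward cut appears as both 1.5 and 3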
# Calls: active = hit: reporter lowered or raised; inactive = no hit
# The deposit covers about 24,000 reagents; this is a random part of those with a known target gene and a result. Over the whole deposit, 246 (1%) were called active. 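Plates not normalised; calls are printed but the firefly/Renilla ratio behind them is not deposited; fold cut for lowering reported inconsistently.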 Raw values vary from plate to plate and are shown uncorrected. Reagents against one gene are numbered here. A plus sign joins genes that one reagent is predicted to hit. Not given: the amount of reagent.
The opening 5 records, to show the layout:
gene,dsRNA no.,"firefly reporter light, replicate 1","firefly reporter light, replicate 2","Renilla control light, replicate 1","Renilla control light, replicate 2",Call
frj,1,2.54e5,2.49e5,5.09e5,4.71e5,inactive
Gr64d + Gr64e,1,8.71e5,1.24e6,1.47e6,2.48e6,inactive
ben,1,31696,49256,2.89e5,3.41e5,inactive
ben,2,4.08e5,4.52e5,5.99e5,5.18e5,inactive
ben,3,8.18e5,6.23e5,1.31e6,9.68e5,inactive

The listing, from the start:
gene,dsRNA no.,"firefly reporter light, replicate 1","firefly reporter light, replicate 2","Renilla control light, replicate 1","Renilla control light, replicate 2",Call
frj,1,2.54e5,2.49e5,5.09e5,4.71e5,inactive
Gr64d + Gr64e,1,8.71e5,1.24e6,1.47e6,2.48e6,inactive
ben,1,31696,49256,2.89e5,3.41e5,inactive
ben,2,4.08e5,4.52e5,5.99e5,5.18e5,inactive
ben,3,8.18e5,6.23e5,1.31e6,9.68e5,inactive
Obp19d,1,3.36e5,1.91e5,1.53e6,8.39e5,inactive
Ugt35B1,1,1.07e5,83442,1.02e6,8.85e5,inactive
Ugt35B1,2,1.80e5,2.25e5,7.07e5,1.01e6,inactive
Ugt35B1,3,7.18e5,6.49e5,1.76e6,1.71e6,inactive
CG15213,1,2.12e5,2.31e5,1.64e6,2.96e6,inactive
CG32006,1,5.09e5,5.07e5,2.32e6,2.50e6,inactive
CG32006,2,4.87e5,2.80e5,1.72e6,1.40e6,inactive
kek3,1,3.81e5,3.27e5,2.71e6,2.08e6,inactive
kek3,2,5.42e5,1.18e6,8.63e5,1.41e6,inactive
kek3,3,3.20e5,3.78e5,4.13e5,5.04e5,inactive
mlt (retired record),1,7.48e5,1.01e6,1.58e6,2.02e6,inactive
mlt (retired record),2,6.22e5,4.37e5,7.83e5,5.53e5,inactive
CG8738,1,4.21e5,3.64e5,2.02e6,1.53e6,inactive
CG33700,1,5.12e5,4.15e5,1.73e6,8.58e5,inactive
mv,1,39436,49415,6.89e5,8.78e5,inactive
mv,2,56678,59422,9.18e5,8.59e5,inactive
mv,3,3.71e5,3.53e5,7.88e5,7.93e5,inactive
CR31427,1,7.07e5,6.10e5,1.41e6,1.09e6,inactive
CR31427,2,1.24e5,1.25e5,1.50e5,1.69e5,inactive
Atg18a,1,1.03e6,7.17e5,9.24e5,1.25e6,inactive
Hsp70Aa + Hsp70Bb + Hsp70Ba + 3 more,1,1.15e5,1.13e5,2.11e6,1.86e6,inactive
prc,1,2.28e5,2.42e5,2.29e6,1.77e6,inactive
CG17803,1,4.36e5,4.48e5,3.19e6,2.56e6,inactive
CG17803,2,4.55e5,1.08e6,1.20e6,2.16e6,inactive
CG15293,1,2.72e5,2.05e5,2.75e6,1.41e6,inactive
Tis11,1,5.25e5,6.33e5,2.54e5,3.31e5,inactive
Sry-delta,1,3.34e5,3.74e5,8.27e5,4.89e5,inactive
CG2852,1,2.48e5,3.80e5,2.01e6,1.42e6,inactive
CG2852,2,7.51e5,4.03e5,2.80e6,1.94e6,inactive
CG15036,1,49442,71395,1.30e6,9.51e5,inactive
CG15036,2,2.86e5,3.71e5,6.50e5,7.41e5,inactive
CG33310,1,1.05e5,84525,1.20e6,1.19e6,inactive
CG33310,2,8.75e5,1.31e6,1.23e6,1.16e6,inactive
Bin1,1,2.29e5,1.91e5,3.14e6,2.45e6,inactive
Nf-YB,1,1.94e5,1.74e5,2.00e6,1.48e6,inactive
